US6903077, “Methods and products for delivering nucleic acids” (University of Vermont and State Agricultural College)
For some assays here: The comparison behind a weaker result is the experiment's own reference, which may not be listed here. Protein sequences can lack the tags named with them. For some assays here: The exact form of at least one protein or probe is not confirmed. For some assays here: Negatives hold for the conditions tested. For some assays here: Where cells or extracts were used, other partners may take part.

Key:
[1] = molecular target: T1, GST-Z2 (RIP60 zinc fingers 6-8 plus part of PRR, GST-Z2-P12) (Homo sapiens) (UniProt Q9BWE0); assay: SELEX; details: purified recombinant protein, protein details: GST N-terminal
T1 sequence: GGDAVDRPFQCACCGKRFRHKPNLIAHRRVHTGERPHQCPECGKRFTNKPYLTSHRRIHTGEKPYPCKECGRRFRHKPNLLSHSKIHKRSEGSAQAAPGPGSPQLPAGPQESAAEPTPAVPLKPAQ

[2] = molecular target: T2, RIP60 full-length (HA-Z123) (Homo sapiens) (UniProt Q9BWE0); assay: competition with a labelled probe; details: no competition at 1000-fold excess; protein in an extract; protein details: HA, nuclear extract of transfected NIH 3T3 cells
T2 sequence: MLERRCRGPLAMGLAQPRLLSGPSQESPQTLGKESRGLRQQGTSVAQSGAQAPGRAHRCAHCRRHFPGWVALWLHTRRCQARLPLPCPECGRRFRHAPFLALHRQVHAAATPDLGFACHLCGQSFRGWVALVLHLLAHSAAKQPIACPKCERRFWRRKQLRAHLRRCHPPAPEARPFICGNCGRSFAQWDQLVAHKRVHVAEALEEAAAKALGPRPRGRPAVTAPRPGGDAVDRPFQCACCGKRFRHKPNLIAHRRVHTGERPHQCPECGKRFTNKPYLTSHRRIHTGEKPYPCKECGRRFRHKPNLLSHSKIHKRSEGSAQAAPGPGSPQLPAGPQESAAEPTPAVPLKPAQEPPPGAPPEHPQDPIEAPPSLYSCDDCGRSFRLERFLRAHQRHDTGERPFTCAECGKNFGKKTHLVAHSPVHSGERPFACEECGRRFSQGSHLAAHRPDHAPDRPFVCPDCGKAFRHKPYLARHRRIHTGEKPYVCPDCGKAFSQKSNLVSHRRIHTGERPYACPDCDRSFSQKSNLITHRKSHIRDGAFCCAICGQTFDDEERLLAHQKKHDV

[3] = molecular target: T3, GST-Z1 (RIP60 zinc fingers 1-5) (Homo sapiens) (UniProt Q9BWE0); assay: competition with a labelled probe; details: purified recombinant protein, protein details: GST N-terminal
T3 sequence: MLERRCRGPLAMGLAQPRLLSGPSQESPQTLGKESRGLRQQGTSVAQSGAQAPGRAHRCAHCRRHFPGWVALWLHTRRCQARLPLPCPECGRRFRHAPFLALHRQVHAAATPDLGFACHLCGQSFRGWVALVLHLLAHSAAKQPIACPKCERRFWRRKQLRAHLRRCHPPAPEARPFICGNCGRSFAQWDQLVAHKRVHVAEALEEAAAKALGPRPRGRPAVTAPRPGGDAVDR

[4] = molecular target: T4, GST-Z3 (RIP60 zinc fingers 9-15) (Homo sapiens) (UniProt Q9BWE0); assay: competition with a labelled probe; details: competes at 1000-fold excess; purified recombinant protein; protein details: GST N-terminal
T4 sequence: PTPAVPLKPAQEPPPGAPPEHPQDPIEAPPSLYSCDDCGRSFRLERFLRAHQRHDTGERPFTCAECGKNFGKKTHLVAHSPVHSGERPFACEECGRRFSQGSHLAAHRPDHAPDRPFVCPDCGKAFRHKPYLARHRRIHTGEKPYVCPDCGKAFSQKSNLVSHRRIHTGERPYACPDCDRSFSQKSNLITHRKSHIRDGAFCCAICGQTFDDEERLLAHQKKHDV

[5] = molecular target: T5, GST-RIP60 (GST-Z123) (Homo sapiens) (UniProt Q9BWE0); assay: competition with a labelled probe; details: USR competes for binding to DSR; purified recombinant protein; protein details: GST N-terminal
T5 sequence: T2 sequence

[6] = molecular target: T6, GST-Z23 (Homo sapiens) (UniProt Q9BWE0); assay: competition with a labelled probe; details: USR competes; purified recombinant protein; protein details: GST N-terminal
T6 sequence: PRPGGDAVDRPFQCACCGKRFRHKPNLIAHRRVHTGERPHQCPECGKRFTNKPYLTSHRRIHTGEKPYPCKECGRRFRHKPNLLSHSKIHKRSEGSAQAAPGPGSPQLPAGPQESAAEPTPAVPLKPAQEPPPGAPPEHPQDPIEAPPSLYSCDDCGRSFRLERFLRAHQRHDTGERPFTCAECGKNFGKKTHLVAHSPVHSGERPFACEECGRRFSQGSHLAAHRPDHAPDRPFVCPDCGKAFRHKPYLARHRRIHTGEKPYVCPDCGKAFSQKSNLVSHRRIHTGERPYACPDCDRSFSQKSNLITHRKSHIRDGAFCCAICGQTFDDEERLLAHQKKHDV

[7] = molecular target: T5, GST-RIP60 (GST-Z123) (Homo sapiens); assay: EMSA; details: ZnCl2; purified recombinant protein; protein details: GST N-terminal; label: 32P
[8] = molecular target: T7, RIP60 native from HeLa nuclear extract (Homo sapiens) (UniProt Q9BWE0); assay: EMSA; details: unphosphorylated; purified native protein; label: 32P
T7 sequence: T2 sequence

[9] = molecular target: T2, RIP60 full-length (HA-Z123) (Homo sapiens); assay: EMSA; details: protein in an extract; protein details: HA, nuclear extract of transfected NIH 3T3 cells; label: 32P
[10] = molecular target: T8, RIP60 phosphorylated by casein kinase II (Homo sapiens) (UniProt Q9BWE0); assay: EMSA; details: less, if any, complex after CKII phosphorylation; purified native protein; protein details: CKII-phosphorylated in vitro; label: 32P
T8 sequence: T2 sequence

[11] = molecular target: T4, GST-Z3 (RIP60 zinc fingers 9-15) (Homo sapiens); assay: EMSA; details: non-specific; eliminated by 1000-fold excess of all competitors; purified recombinant protein; protein details: GST N-terminal; label: 32P
[12] = molecular target: T9, GST-Z2deltaP (Homo sapiens) (UniProt Q9BWE0); assay: EMSA; details: specific but weak; no multimers; purified recombinant protein; protein details: GST N-terminal; label: 32P
T9 sequence: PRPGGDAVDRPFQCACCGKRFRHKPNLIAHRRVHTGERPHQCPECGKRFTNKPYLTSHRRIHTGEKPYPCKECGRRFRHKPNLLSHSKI

[13] = molecular target: T6, GST-Z23 (Homo sapiens); assay: EMSA; details: specific; purified recombinant protein; protein details: GST N-terminal; label: 32P
[14] = molecular target: T1, GST-Z2 (RIP60 zinc fingers 6-8 plus part of PRR, GST-Z2-P12) (Homo sapiens); assay: competition with a labelled probe; details: no competition at 1000-fold excess; purified recombinant protein; protein details: GST N-terminal

## TACTTTATGGTTAACG (double strand) [Z2 selected 66]
[1]
  selection result: selected

## CTGTTTTTTTTAGTATTAAGC (double strand) [Py-AT (OCH37/OCH38)]
[2]
  binding result: no binding
[3]; slight competition at 1000-fold excess
  binding result: binds more weakly
[4]
  binding result: binds

## CCTTCCTTCTTATTCA (double strand) [Z2 selected 53]
[1]
  selection result: selected

## AATTTACCGTTTCTAT (double strand) [Z2 selected 52]
[1]; 3 rounds, 16 bp random
  selection result: selected

## GATCCGGGAAGGCGGGCGCTGGGGGCGCTGCGGCGCTGCGCTCCACCT / GATCTAGGTGGAGCGCAGCGCCGCAGCGCCCCCAGCGCCCGCCTTCCCG [IBF (OCH13/OCH14)]
[2]
  binding result: no binding
[4]
  binding result: binds

## TCTAATTTTCTTTTTA (double strand) [Z2 selected 56]
[1]
  selection result: selected

## CTATTACTGTTTTCTG (double strand) [Z2 selected 64]
[1]
  selection result: selected

## TTTTATAATTCCTATT (double strand) [Z2 selected 55]
[1]
  selection result: selected

## TGTTTTGATTTTTTAT (double strand) [Z2 selected 57]
[1]
  selection result: selected

## GATGAATTTTTTTTTA (double strand) [Z2 selected 62]
[1]
  selection result: selected

## TTCTTTTTTCATAAAT (double strand) [Z2 selected 59]
[1]
  selection result: selected

## TACTTTATGGTTAAGC (double strand) [Z2 selected 63]
[1]
  selection result: selected

## GATCTTAACAGTAATAATAAATATCT / GATCAGATATTTATTATTACTGTTAA [USR (OCH39/OCH40)]
[5]
  binding result: binds
[6]
  binding result: binds

## TTCATTTGATTTTATT (double strand) [Z2 selected 54]
[1]
  selection result: selected

## TTTTTAAATTTTTTTA (double strand) [Z2 selected 61]
[1]
  selection result: selected

## TTTTTTTAGTTTCTTA (double strand) [Z2 selected 65]
[1]
  selection result: selected

## TATTTTATTTATTAAT (double strand) [Z2 selected 58]
[1]
  selection result: selected

## GATCTTTTATTATTATTATTAGTTCG / GATCCGAACTAATAATAATAATAAAA [DSR (OCH7/OCH8)]
[7]
  binding result: binds
[8]
  binding result: binds
[9]
  binding result: binds
[10]
  binding result: binds more weakly
[11]
  binding result: binds more weakly
[12]
  binding result: binds more weakly
[13]
  binding result: binds

## TATTATTTTATGTTGA (double strand) [Z2 selected 60]
[1]
  selection result: selected

## GCATAATAAAAAAAATTAGT / ACTAATTTTTTTTATTTATGC [SV-AT (OCH35/OCH36)]
[3]; not significantly competing
  binding result: no binding
[4]
  binding result: binds
[14]
  binding result: no binding
